Patent US20230272088A1 (SYNTHEKINE, published 2023)
These are yes or no findings as the source states them, for the method shown. Some binding calls cover weakened binding; strength is not graded here.

T1: extracellular domain of mIFNGR2 (mouse)
T1 sequence (chain, conjugated to Alexa647 (site not stated)): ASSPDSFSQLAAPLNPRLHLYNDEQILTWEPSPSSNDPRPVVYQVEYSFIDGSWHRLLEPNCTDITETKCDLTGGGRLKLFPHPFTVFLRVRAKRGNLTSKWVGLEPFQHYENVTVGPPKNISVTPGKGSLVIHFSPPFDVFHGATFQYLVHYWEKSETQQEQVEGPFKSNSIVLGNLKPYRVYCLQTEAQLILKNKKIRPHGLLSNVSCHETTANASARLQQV

T2: extracellular domain of hIFNGR2 (human, UniProt P38484 28-247, conjugated to Alexa647 (site not stated))
T2 construct: also called hIFNGR2-ECD; human IFNGR2 ECD
T2 sequence: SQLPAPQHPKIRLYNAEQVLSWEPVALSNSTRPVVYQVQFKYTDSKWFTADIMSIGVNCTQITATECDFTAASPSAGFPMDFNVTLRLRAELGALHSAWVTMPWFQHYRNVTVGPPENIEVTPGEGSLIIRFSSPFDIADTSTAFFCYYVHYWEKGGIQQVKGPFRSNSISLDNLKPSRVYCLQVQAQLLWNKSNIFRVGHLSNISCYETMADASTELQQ


Assays:
[1] = molecular target: T1, extracellular domain of mIFNGR2 (mouse); assay: flow cytometry
[2] = molecular target: T1, extracellular domain of mIFNGR2 (mouse); assay: flow cytometry, yeast-displayed VHH, 100 nM Alexa647-conjugated antigen
[3] = molecular target: T2, extracellular domain of hIFNGR2; assay: as above
Experimental: Binding of individual VHH to human and murine antigen was tested by flow cytometry. Briefly, 2E5 yeast cells expressing a single sdAb clone were added to each well of a 96 well plate. The first plate was incubated with 100 nM of human antigen conjugated to Alexa647 whereas the second plate was incubated with 100 nM of murine antigen conjugated to Alexa647. Yeast cells were washed 3 times with PBS containing 1% bovine serum albumin. Yeast cells were analyzed using flow cytometry and clones showing a mean fluorescence intensity of greater than 1000 were considered as binding molecules. Specificity of sdAbs was confirmed by incubating yeast cells with a irrelevant protein conjugated to Alexa647. Positive clones were sequenced, and sequences analyzed to identify unique clonotypes.

[4] = molecular target: T2, extracellular domain of hIFNGR2; assay: flow cytometry

Binder | binding [1] | binding [2] | binding [3] | binding [4]
DR937 (VHH, also called anti-IFNGR2 sdAb VHH DR937) VHH: QVQLVESGGGLVQPGGSLRLSCAASGRTFRSYSMGWFRQAPGKEREFVAAISWYSGTTYYADPVKGRFTISRDDAKNTLYLQMNSLKPEDTAVYYCAANEIATMESSNDYWGQGTQVTVSS | binds | binds | – | –
DR932 (VHH, also called anti-IFNGR2 sdAb VHH DR932) VHH: QVQLVESGGGLVQAGGFLRLSCAASGRTFSYTTIGWFRQAPGKEREFVAVISAGGGSRDYADALKGRFTISRDNAKKMVYLQMNNLKPEDTAVYYCAVRRNTDTYTTTGDYDYWGQGTQVTVSS | binds | binds | – | –
DR928 (VHH, also called anti-IFNGR2 sdAb VHH DR928) VHH: QVQLVESGGGLVQAGGSLRLSCAASGRTFSNYRMGWFRQAPGKEREFVAAISRGGGTTLYADSVKGRFTISRDNAKNTVDLQMNRLKPEDTAVYFCAAGDFSTTWDEYNYWGQGTQVTVSS | binds | binds | – | –
DR949 (VHH, also called anti-IFNGR2 sdAb VHH DR949) VHH: QVQLVESGGGLVQAGGSLRLSCAASESILRFNVMSWLRQAPGKQRELVAVITSGGSTNYADSVKGRFTISRDNAKNTVYLQMNSLKPEDTAVYYCAADESGQYYWGQGTQVTVSS | binds | binds | – | –
DR927 (VHH, also called anti-IFNGR2 sdAb VHH DR927) VHH: QVQLVESGGGLVQAGGSLRLSCAASGRTFTSYAMNWFRQAPGKEREFVAAISWSSGNTYVADSVKGRFAISRDKAKNTMYLQMNSLAPEDTAVYYCAATTIATMSDEYTYWGQGTQVTVSS | binds | binds | – | –
DR934 (VHH, also called anti-IFNGR2 sdAb VHH DR934) VHH: QVQLVESGGGLVQAGGSLRLSCAASGRSFANYAMGWFRQAPGKERETVAAISRGGGSTWYADSVKGRFTISKDNAKNTVYLQMNSLKPEDTAIYYCAARSYSGSYTYSFGEYDYWGQGTQVTVSS | binds | binds | – | –
DR943 (VHH, also called anti-IFNGR2 sdAb VHH DR943) VHH: QVQLVESGGGLVQAGGSLRLSCVASGRTVGYGMAWFRQAPGKQRDVVAAITWSGTSTYYPDSVKGRFTISRDNAKNTMYLQMSSLKPEDTAVYYCAAGSRRRVGVDVGGYDYWGQGTQVTVSS | binds | binds | – | –
DR948 (VHH, also called anti-IFNGR2 sdAb VHH DR948) VHH: QVQLVESGGGLVQAGDSLRLSCVASGSIDSSYYVSWFRQAPGKERDLVAAINWGDSRTAYADSVKGRFTISRDNAKNTVYLQMHSLRPNDTAVYYCASRIGLGGPVVAAPTRYPYWGQGTLVTVSS | binds | binds | – | –
DR956 (VHH, also called anti-IFNGR2 sdAb VHH DR956) VHH: EVQLVESGGGLVQAGGSLRLSCAASGRTFSSLAMAWFRQAPGKEREFVAATTILGGSADYGDPVKGRFTISRDNAKNTVYLQMNSLKPEDTAVYYCTGRRPAPSDNYWSPASYAYWGQGTQVTVSS | binds | binds | – | –
DR958 (VHH, also called anti-IFNGR2 sdAb VHH DR958) VHH: QVQLVESGGGLVQAGDSLTLSCTASGRTFSGYNMGWFRQAPGKERDFVAAINWIGGATYYADSVKGRFTISRDNAKNTVYLQMNSLKPEDTAVYYCHRYSEKFYSGKDYYTRDYDYWGQGTQVTVSS | binds | binds | – | –
DR940 (VHH, also called anti-IFNGR2 sdAb VHH DR940) VHH: EVQLVESGGRLVQTGGSLRLSCAASGRTFSNYAMGWFRQAPGKEREFVAAISWYSGNTYYADSVKGRFTISRDNAKNTMYLQMNSLKPEDTAVYYCAANQIATMISVGDYWGQGTLVTVSS | binds | binds | – | –
DR947 (VHH, also called anti-IFNGR2 sdAb VHH DR947) VHH: QVQLVESGGGLVQAGGSLRLSCAASGGSFGRYTMGWYRQAPGKEREFVAVISWSGTNTYYADSVKGRFTISRDNAKNTMYLQMNDLKPEDTAVYYCAARETYYSHWDERMEYDYWGQGTQVTVSS | binds | binds | – | –
DR954 (VHH) VHH: QVQLVESGGGLVQAGGSLRLSCAAARRTLHNFAMAWFRQAPGKEREFVAAISKGGGSADYADSVKGRFTISRDNAKNTVYLQMNSLKPEDTAVYYCAANDLASYSDSSYTSTSRYDYWGQGTQVTVSS | binds | binds | binds | binds

Further lines, results first:

binding [1] | binding [2] | binding [3] | binding [4] | Binder
binds | binds | – | – | DR929 (VHH, also called anti-IFNGR2 sdAb VHH DR929) VHH: QVQLVESGGGLVQAGGSLRLSCVASGRTFSSYAMGWFRQTPGKEREFVSAISRGGGSTDYADSVKGRFTISRDNAKNTVYLQMNNLKSEDTAVYYCALRAYSGRYYQFLEYDYWGQGTQVTVSS
binds | binds | – | – | DR953 (VHH, also called anti-IFNGR2 sdAb VHH DR953) VHH: QVQLVESGGGLVQAGDSLRLSCAASGPTFSTYAMAWFRQAPGKEREFVAAITQSGRTTYYEDSVKGRFTISKDNAKNTLYLQMNSLQPEDTAVYYCAARDLWSDSPDDWRIYSFWGQGTQVTVSS
binds | binds | – | – | DR950 (VHH, also called anti-IFNGR2 sdAb VHH DR950) VHH: QVQLVESGGGLVQAGGSLRLSCAASGLTTSSAALAWFRQAPGKERELDPTITSGGGSTYYADSVKGRFTISKDNAKNTLYLQMSSLKPEDTAVYYCAARFYSTTYYYREHEYSDWGQGTQVTVSS
binds | binds | – | – | DR941 (VHH, also called anti-IFNGR2 sdAb VHH DR941) VHH: QVQLVESGGGLVEAGGSLRLACAASGSIFRLNLMGWYRQAPGKQRELVAHVGTTGNTAYADSVKGRFTISKDDAKNMVFLQMNSLKPEDTAVYYCYADRWGQFSWGQGTQVTVSS
binds | binds | – | – | DR951 (VHH, also called anti-IFNGR2 sdAb VHH DR951) VHH: QVQLVESGGGLVQAGGSLRLSCAASGRTFGTSFGSLSMGWFRQAPGKEREFVAAISRNIGRTYYADSVKDRFTISRDNAKNTASLQMNSLEPEDTAVYNCAATNSYDDLRRSYAYDYWGQGTQVTVSS
binds | binds | – | – | DR931 (VHH, also called anti-IFNGR2 sdAb VHH DR931) VHH: QVQLVESGGGLVQAGGSLLLSCAASGRTFSTYAMGWFRQAPGKERMFVAAISVNGGSTYYADSVTGRFTISRDNAKNTMYLQMNNLKPGDTAVYYCAARRPYPGSDFLTWASYDYRGQGTLVTVSS
binds | binds | – | – | DR930 (VHH, also called anti-IFNGR2 sdAb VHH DR930) VHH: EVQLVESGGGLVQAGGSLRLSCTVSGRTFSSYAVAWFRQAPGNVRELAAALSRGGGSAYYTDSVKGRFTISRDNAKNTVYLQMNSLKPEDTAVYYCAARNYDGTYYQENQYNYWGQGTQVTVSS
binds | binds | – | – | DR946 (VHH, also called anti-IFNGR2 sdAb VHH DR946) VHH: QVQLVESGGGLVQPGESLRLSCAASGPFTRYAMGWFRQAPGKEREFVAAISWSSGNTYYVDSVKGRFTISRDNAKNTMYLQMNSLKPEDTAVYYCAANEVATMSGPDDYWGQGTQVTVSS
binds | binds | – | – | DR952 (VHH, also called anti-IFNGR2 sdAb VHH DR952) VHH: QVQLVESGGGLVQAGGFLRLSCAASGRTFSSLAMAWFRQAPGKEREFVAAISRSGGSTDYADSVKGRFTISRDNAKSTLYLQMSSLKPEDTAVYYCAARDYSTLQYYNEYEYSDWGQGTLVTVSS
binds | binds | – | – | DR936 (VHH, also called anti-IFNGR2 sdAb VHH DR936) VHH: EVQLVESGGGLVQAGGSLRLSCAASGRTFSSVAMAWFRQAPGKEREFVSAISSGGGSTDYADSVKGRFTISKDNAKNTMYLQMDSLKPEDTAVYYCAARDYSSRRYYQSRYEYDLWGLGTQVTVSS
binds | binds | – | – | DR933 (VHH, also called anti-IFNGR2 sdAb VHH DR933) VHH: QVQLVESGGGLVQPGDSLRLSCVASGGTISSLAMGWFRQAPGKEREFVAAISWSGRSTYYVDSVKGRFTISTDNAKNTVYLQMNSLKPEDTAVYYCVAGEDGHSEYDYWGQGTQVTVSS
binds | binds | – | – | DR938 (VHH, also called anti-IFNGR2 sdAb VHH DR938) VHH: QVQLVESGGGLVQPGGSLRLSCTASGRPRTTYAMGWFRQAPGKEREIVAAISKAGGSTYVADSAKGRFAISKDNAKNTVYLQMNSLKPEDTAVYYCAARAGFAAQIFEYDYWGQGTLVTVSS
binds | binds | – | – | DR935 (VHH, also called anti-IFNGR2 sdAb VHH DR935) VHH: QVQLVESGGGLVQAGGSLRLSCAASGRAFSTYALGWFRQAPGKEREFIAAISRGGGSTDYADSVKGRFTISRDNAKSTVYLQMNSLKPEDTAVYYCAARSYSSSYYYSQYEYDYWGQGTQVTVSS
